Measurements as given in article PMC12003641.
These are yes or no findings as the source states them, for the method shown. In cells and extracts the contact can be indirect. Some results given as binding are weak or reduced against the parent protein; the word gives no strength. For part of these data: Sequences can lack the tags named with a protein. Values belong to the binder of their own block, whether it stands above or below them.

Sequences of proteins named here, by UniProt entry; tags and fusion partners are left off.
UniProt P40337: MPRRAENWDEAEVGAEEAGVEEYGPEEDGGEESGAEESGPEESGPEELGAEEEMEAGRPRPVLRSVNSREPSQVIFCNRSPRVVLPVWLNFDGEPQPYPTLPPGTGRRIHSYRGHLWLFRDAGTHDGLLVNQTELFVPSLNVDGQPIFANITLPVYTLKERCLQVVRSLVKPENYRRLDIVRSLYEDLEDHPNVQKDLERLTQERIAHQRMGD

Experiments:
[1] = biological target: VHL, endogenous in HEK293A (human (endogenous in HEK293A)) (UniProt P40337); assay: co-IP; endogenous proteins; lysate of HEK293A treated with 10 µM MG132 for 4 h; anti-VHL antibody against an IgG1 isotype control; mild lysis buffer
[2] = biological target: Flag-tagged VHL (UniProt P40337); assay: co-IP; HEK293A transfected with indicated plasmids, 10 µM MG132 as indicated for 4 h; immunoprecipitation of Flag-VHL; normoxia or hypoxia (0.5% O2 for 24 h)
[3] = biological target: HA-VHL stably reconstituted in 786-O cells (HA-VHL-pRc/CMV) (UniProt P40337); assay: co-IP; lysate of MG132-treated 786-O cells stably reconstituted with HA-VHL; VHL-targeting antibody against an isotype control

binding [1]: binds
B1: retinoblastoma protein (pRb), endogenous in HEK293A (protein, UniProt P06400 1-928)
chain: MPPKTPRKTAATAAAAAAEPPAPPPPPPPEEDPEQDSGPEDLPLVRLEFEETEEPDFTALCQKLKIPDHVRERAWLTWEKVSSVDGVLGGYIQKKKELWGICIFIAAVDLDEMSFTFTELQKNIEISVHKFFNLLKEIDTSTKVDNAMSRLLKKYDVLFALFSKLERTCELIYLTQPSSSISTEINSALVLKVSWITFLLAKGEVLQMEDDLVISFQLMLCVLDYFIKLSPPMLLKEPYKTAVIPINGSPRTPRRGQNRSARIAKQLENDTRIIEVLCKEHECNIDEVKNVYFKNFIPFMNSLGLVTSNGLPEVENLSKRYEEIYLKNKDLDARLFLDHDKTLQTDSIDSFETQRTPRKSNLDEEVNVIPPHTPVRTVMNTIQQLMMILNSASDQPSENLISYFNNCTVNPKESILKRVKDIGYIFKEKFAKAVGQGCVEIGSQRYKLGVRLYYRVMESMLKSEEERLSIQNFSKLLNDNIFHMSLLACALEVVMATYSRSTSQNLDSGTDLSFPWILNVLNLKAFDFYKVIESFIKAEGNLTREMIKHLERCEHRIMESLAWLSDSPLFDLIKQSKDREGPTDHLESACPLNLPLQNNHTAADMYLSPVRSPKKKGSTTRVNSTANAETQATSAFQTQKPLKSTSLSLFYKKVYRLAYLRLNTLCERLLSEHPELEHIIWTLFQHTLQNEYELMRDRHLDQIMMCSMYGICKVKNIDLKFKIIVTAYKDLPHAVQETFKRVLIKEEEYDSIIVFYNSVFMQRLKTNILQYASTRPPTLSPIPHIPRSPYKFPSSPLRIPGGNIYISPLKSPYKISEGLPTPTKMTPRSRILVSIGESFGTSEKFQKINQMVCNSDRVLKRSAEGSNPPKPLKKLRFDIEGSDEADGSKHLPGESKFQQKLAEMTSTRTRMQKQKMNDSMDTSNKEEK

binding [2]: binds
B2: pRb in the Flag-VHL immunoprecipitation of Fig. 3A (protein, UniProt P06400 1-928)
chain: B1 chain

binding [3]: binds
B3: retinoblastoma protein (pRb), endogenous in 786-O (protein, UniProt P06400 1-928)
chain: B1 chain
